Experimental data published in patent EP4806918A1.
Positions count from the first letter of the chain named. No constants are given. Whether binding was seen depends on the method and setting. Some entries that bind do so weakly or less than the wild type.

Protein sequences, listed by entry. Tags and fused reporters are not part of them. Lines headed by an entry give the natural chain unless they say otherwise; changes in a name come on top. Chains listed by the source or under a name are the forms on record and can include a tag or linker.
cynomolgus monkey PD-L1 on a stable cell line (Probio, M00573) (G7PSE7, form named): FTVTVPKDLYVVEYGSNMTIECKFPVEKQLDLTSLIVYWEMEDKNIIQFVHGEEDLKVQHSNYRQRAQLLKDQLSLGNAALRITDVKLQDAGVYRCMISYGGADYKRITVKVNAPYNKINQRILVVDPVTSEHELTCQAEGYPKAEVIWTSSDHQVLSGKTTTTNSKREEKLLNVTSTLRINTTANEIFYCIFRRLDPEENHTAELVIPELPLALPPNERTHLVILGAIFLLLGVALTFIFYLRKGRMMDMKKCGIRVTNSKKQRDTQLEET
UniProt Q9NZQ7: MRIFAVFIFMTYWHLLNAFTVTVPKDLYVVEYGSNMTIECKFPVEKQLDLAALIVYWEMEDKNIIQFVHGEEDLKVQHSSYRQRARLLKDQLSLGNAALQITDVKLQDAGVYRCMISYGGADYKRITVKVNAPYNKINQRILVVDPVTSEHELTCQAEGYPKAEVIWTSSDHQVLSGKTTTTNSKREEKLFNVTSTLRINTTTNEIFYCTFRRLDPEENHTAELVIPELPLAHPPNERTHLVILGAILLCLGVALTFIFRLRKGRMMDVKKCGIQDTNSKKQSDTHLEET

Assays:
[1] = target: cynomolgus monkey PD-L1 on a stable cell line (Probio, M00573) (cynomolgus monkey) (UniProt G7PSE7); experiment: FACS on stable cell line expressing cynomolgus monkey PD-L1
[2] = target: recombinant human PD-L1-His protein (GenScript, Z03425) (human) (UniProt Q9NZQ7); experiment: SPR, Biacore 8K, antibody Fc-captured, human PD-L1-His as analyte
[3] = target: recombinant human PD-L1-His protein (GenScript, Z03425) (human) (UniProt Q9NZQ7); experiment: indirect ELISA, plate coated with recombinant human PD-L1-His

Measured: binding

B1: AHP30019 fully human antibody (antibody, IgG1, V domains shown, not shown: a dimerising Fc or GST)
VH: QVQLVQSGGGLVQPGGSLRLSCAGSGSSFSLAVMGWYRQAPGRQRELVGIISSAAGTNYADSVKGRFTISRDDAKNTLYLQMNSLTAEDTAVYYCWRGAVPGDPYGRWGQGTLVTVSS
VL: EIVLTQSPLSLPVTLGQPASISCRSSQSLVHSDGNTYLNWFQQRPGQPPRRLIYEVSNRDSGVPDRFSGSGSGTDFTLKISRVEAEDVGVYYCMQGTHWPWTFGQGTKVEIK
binds: all assays above

B2: AHP31319 fully human antibody (antibody, IgG1, V domains shown, not shown: a dimerising Fc or GST)
VH: B1 VH with Q1E, L113T
VL: EIVMTQSPGTLSLSPGEGATLSCRASQSVSNNYLAWYQQKHGQAPRLLIYGASSRATGIPDRFSGSGSGTDFTLTINRLEPEDFALYYCQQYGNSPGTFGQGTKVDIK
binds: all assays above
